Screening data, single-dose tests

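Assay of Toxoplasma gondii numbers, read through their beta-galactosidase reporter with a colour substrate. Concentration: 10 µM. Higher reads as fewer parasites (inferred from which compounds were picked for retests). About 67,000 compounds were tested under these conditions; 0.38% (about 260) showed 50% or more at least once.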

The filed quantity is “Percent Effect” (%). The controls that fix the scale are not given in the record; negative values are as filed. The compounds are a random part of those screened.

compound | effect
CC1(C)CNC(=O)c2nc(C3CCN(C(=O)C4CC4)CC3)[nH]c2C1 | -1.035
CC[C@@H](Cn1ncc2ccccc2c1=O)NC(=O)c1cnc(C)cn1 | -9.437
O=C(Cc1cccc(F)c1)NCCNCc1ccco1 | 0.9529
Cc1cn2c(n1)CCC(NC(=O)c1cncnc1C)C2 (centres undefined) | -11.53
O=C1CSc2ccccc2N1Cc1noc(C2CCCO2)n1 (centres undefined) | -16.63
COc1ccccc1CCN1CCCC(CN(C)Cc2ccc(C)o2)C1 (centres undefined) | 11.9
[H][C@@]12CCCO[C@]1([H])[C@H](OCC1CCOCC1)CN2C(=O)c1occc1C | 0.7476
Cc1cc(C(=O)NC(C)c2nnn[nH]2)c2cccc(C)c2n1 (centres undefined) | -15.82
Cc1cc(C(=O)NC2=NCCS2)c(C)n1-c1ccccn1 | 1.348
CN1CCC(c2n[nH]cc2-c2ccnc(N)c2)C1 (centres undefined) | -7.314
Cc1nc(Nc2nnc(C)s2)cc(C2CCCN2C2CCCC2)n1 (centres undefined) | -0.03571
CCOc1ccccc1CN(C)C(C)c1nc(-c2cccnc2)no1 (centres undefined) | 6.655
CC[C@H](C)Nc1nccc(-c2cnc3sc(C)c(C)n3c2=O)n1 | 12.11
O=c1[nH]nc2c(S(=O)(=O)N3CCCCCC3)cccn12 | -1.829
Cc1ccnn1C(C)C(=O)Nc1cc(-c2ccncc2)[nH]n1 (centres undefined) | 5.699
CC(C)CC(=O)N1CC(=O)c2sc(NC3CCCCC3)nc2C1 | 10.34
Cc1cnn(CC2CCCN2C(=O)c2cc(C)nc3[nH]nc(C)c23)c1 (centres undefined) | 2.771
[H][C@]12CN(Cc3cccnc3OC)CC[C@@]1(O)CCN(C(=O)COC)C2 | 14.62
Cc1nc(N2CCCCC2)ncc1-c1cc(O)nc(N2CCCCC2)n1 | -23.1
O=C(C1CCOCC1)N1CCC2(CC1)CN(c1ccsc1)C(=O)CO2 | 0.8565
CN1CC(=O)N(c2ccccc2)CC12CCN(CC1CCOCC1)C2.O=C(O)C(F)(F)F.O=C(O)C(F)(F)F (centres undefined) | 2.473
OC(CN1CCCc2ccc(F)cc21)Cn1cccn1 (centres undefined) | 8.302
CCc1ccc(S(=O)(=O)NCCC(O)c2ccoc2)s1 (centres undefined) | -6.866
O=C(N[C@H]1CCCC[C@@H]1O)c1ccc2nc(-c3ccccc3)[nH]c2c1 | 7.717
Cc1nc(N2CCN(C)CC2)ncc1C(=O)N1CC(C)(C)C(C)(O)C1 (centres undefined) | -0.3721
COc1ccc(OCc2cc(C(=O)N3C[C@@H](C)O[C@@H](C)C3)n[nH]2)c(Cl)c1 | -0.1122
CNC(=O)CN1C(=O)CCC12CCCN(Cc1ccccn1)C2 (centres undefined) | 4.866
CC(=O)Cc1c(C)nn(-c2cncc(N)c2)c1C | 22.91
Cc1nc(N2CCN(C(=O)NCc3cscn3)CC2)sc1C | 15.64
N#CCCN(Cc1cccnc1)C(=O)c1cc(Cl)c[nH]1 | -4.744
COCCC(=O)N1CCC(C(=O)c2cc(C)cnc2N)CC1 | -5.75
COc1ccc(Cc2nc3c([nH]2)CC(C)(C)CNC3=O)cc1OC | -2.947
CC(=O)N1CCc2nc(N(C)C)nc(NCCc3ccccc3)c2CC1 | 3.789
CCN1CCC2(COCc3c(C)nc(N4CCOCC4)nc32)C1 (centres undefined) | -15.31
[H][C@]12CCN(S(C)(=O)=O)[C@@]1([H])CC[C@H](COCC(=O)N1CCCC1)O2 | -12.94
Cc1cc(NC(=O)NCC(C)N2CCOCC2)n(C)n1 (centres undefined) | -15.34
Cc1ccc(C(=O)N2CCC(c3noc(-c4cccnc4)n3)CC2)cn1 | 17.19
O=C(Cn1nc(Br)nc1Br)N1CCOCC1 | 13.81
O=C1CC2(CCN(C(=O)c3cccc(Cl)c3)CC2)CN1 | -14.02
CCC1CN(CC(=O)NC2(C#N)CCCC2)CCN1CCOC (centres undefined) | 0.5643
CS(=O)(=O)N1CCCC(Cc2cnc(Br)cn2)CC1 (centres undefined) | -1.62
Cc1csc(N2CCC(NCC3(O)CCc4ccccc43)CC2)n1 (centres undefined) | -3.805
Cc1nnc(SC2CCc3ccccc3NC2=O)o1 (centres undefined) | -1.638
Cc1oc(-c2cccc(F)c2F)nc1CN(C)CCO | 5.121
CCOCC1COCCC12CCN(C(=O)C1=CCCCC1)CC2 (centres undefined) | -3.937
COc1nn(C)c2c1CCCN(C(=O)c1ccc3ccccc3n1)C2.O=C(O)C(F)(F)F | -3.32
Cn1ccc(C(=O)N2CCN(c3ccccn3)CC2)cc1=O | -36.05
Cc1ccc2c(c1)OC(C)(C)CC2NC(=O)C1CCN(C)CC1 (centres undefined) | 7.876
COc1ncc(CN2CCOC(C)(C(=O)N3CCOCC3)C2)cn1 (centres undefined) | 15.9
O=C(NCCc1cc(N2CCOCC2)nc(NC2CC2)n1)C1CCCO1 (centres undefined) | 22.19
O=C(O)C(F)(F)F.[H][C@@]12CCN(c3cccc(F)c3)C[C@@]1([H])O[C@@H](C(=O)NCc1ccco1)C2 | 0.2999
O=C(CCNC(=O)c1ccccc1)Nc1ccncc1 | -1.056
O=C(CCOc1ccccc1Cl)N1CCN(c2cnccn2)CC1 | 5.109
COCc1ncc(CN2CCC(Oc3ccccc3C)CC2)cn1 | -9.674
CN(C)C(=O)c1cc(-c2ccncc2)[nH]n1 | -7.126
CN(CC(=O)Nc1cc(C(C)(C)C)n[nH]1)S(C)(=O)=O | 4.59
NC(=O)CN1CCCN(C(=O)CCOc2ccccc2Cl)CC1 | -3.521
CC(=O)N1CCc2nc(-c3ccccc3)nc(NC(C)C)c2CC1 | -30.88
COc1cc2c(cc1CNC(=O)C(C)n1ccnc1C(C)C)OCCO2 (centres undefined) | -40.5
COc1ccc(F)c(CN2CCC(c3cc(O)nc(C)n3)C2)c1.O=C(O)CC(O)(CC(=O)O)C(=O)O (centres undefined) | 27.48
COCCN(Cc1ccccc1)C(=O)c1cnn(C)c1C | -1.034
O=C1CCCN1Cc1nnc2n1CCCN(C(=O)c1ccc[nH]1)C2 | -21.4
COc1ccc(C(C)C)cc1C1CC(=O)NCc2nc(N(C)C)sc21 (centres undefined) | 1.902
O=C1CCC2(CCCN(C(=O)c3ncc[nH]3)C2)CN1CCc1c[nH]cn1 (centres undefined) | 1.869
CC(C)COC1CC2(CCN(Cc3nccn3C)CC2)C1.O=C(O)C(F)(F)F | -6.31
CN(c1ccc(OCc2cnc(Cl)s2)cc1)S(C)(=O)=O | 2.589
CN(CCO)Cc1nnc(C2CCN(C(=O)c3cccnc3)CC2)n1C | 0.5507
O=C(O)C(F)(F)F.[H][C@@]12CCN(c3ncccn3)C[C@]1([H])[C@H](C(=O)NCC1CC1)CCO2 | 7.389
COc1cc(C)ccc1OCCC(=O)N1CCC(N2CC=CC2)C1 (centres undefined) | 7.863
Cc1nccc(C2CN(S(=O)(=O)N(C)C)C2)n1 | -2.374
c1cncc(-c2ccc3c(c2)C2(CCNCC2)CC3)c1 | 1.78
COCC1CN(Cc2ccc(C)s2)Cc2nnn(C)c21.O=C(O)C(F)(F)F (centres undefined) | 3.713
CCOCc1cnc2n1CCN(C(=O)Cc1ccco1)C2C (centres undefined) | -2.032
CN(C)CC1CN(c2ccc(C#N)cn2)CCO1 (centres undefined) | -2.95
CN(C(=O)CNC(=O)CC(C)(C)C)C1CCN(c2ccccn2)CC1 | -4.202
Cc1cn2c(=O)c(-c3ccnc(N[C@@H]4CCOC4)n3)cnc2s1 | -42.76
COCCOc1ncccc1-c1noc([C@@H]2CCCN2C2CCC2)n1 | 2.141
CCC1(CC)Cc2ccccc2-c2nc(NCCO)[nH]c(=O)c21 | 1.458
CCOC(=O)CCNC(=O)N1CCCC(CNC(=O)c2ccco2)C1 (centres undefined) | -0.7789
CNc1nccnc1C1CCN(C(C)C)CC1 | 22.25
CSC(C)C(=O)NS(=O)(=O)c1ccc(F)c(C(F)(F)F)c1 (centres undefined) | -2.28
CS(=O)(=O)c1nnc(NC(=O)CCc2cc(F)ccc2F)[nH]1 | 8.583
CCc1nccn1C1CCCN(C(=O)c2cnn3cccnc23)C1 (centres undefined) | 9.229

For reference, 8 entries once more:

- COCc1ncc(CN2CCC(Oc3ccccc3C)CC2)cn1 | -9.674%
- O=C(Cc1cccc(F)c1)NCCNCc1ccco1 | 0.9529%
- CCC1(CC)Cc2ccccc2-c2nc(NCCO)[nH]c(=O)c21 | 1.458%
- N#CCCN(Cc1cccnc1)C(=O)c1cc(Cl)c[nH]1 | -4.744%
- CNc1nccnc1C1CCN(C(C)C)CC1 | 22.25%
- COc1cc2c(cc1CNC(=O)C(C)n1ccnc1C(C)C)OCCO2 (centres undefined) | -40.5%
- CN(c1ccc(OCc2cnc(Cl)s2)cc1)S(C)(=O)=O | 2.589%
- CC[C@@H](Cn1ncc2ccccc2c1=O)NC(=O)c1cnc(C)cn1 | -9.437%

Source: ChEMBL document CHEMBL3988442, “University of Dundee, Small-Polar-MMV Screening Library” (2021).